These results are taken from PMC12752606, “METTL10‐Mediated PIAS3 Methylation Links Purine Metabolism to Gastric Cancer Progression” (Advanced Science, 2025).

The chains behind the UniProt entries cited, without tags or fusion partners. Where a name states a change or a piece, a line headed by the entry shows the natural chain unless it says otherwise. A line that says so, or that is headed by a name, gives the form on record, which may keep a tag or linker. Residues count along the entry.
Flag-tagged METTL10 N-terminal fragment (ΔC: aa 1-197) (Q5JPI9, residues 1-197): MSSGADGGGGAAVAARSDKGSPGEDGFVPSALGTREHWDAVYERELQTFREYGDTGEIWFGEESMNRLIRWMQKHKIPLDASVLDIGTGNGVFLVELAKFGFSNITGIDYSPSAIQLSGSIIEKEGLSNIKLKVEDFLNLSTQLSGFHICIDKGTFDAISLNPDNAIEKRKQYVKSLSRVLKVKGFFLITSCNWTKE
Flag-METTL10 (methyltransferase-like 10) (Q5JPI9, form named): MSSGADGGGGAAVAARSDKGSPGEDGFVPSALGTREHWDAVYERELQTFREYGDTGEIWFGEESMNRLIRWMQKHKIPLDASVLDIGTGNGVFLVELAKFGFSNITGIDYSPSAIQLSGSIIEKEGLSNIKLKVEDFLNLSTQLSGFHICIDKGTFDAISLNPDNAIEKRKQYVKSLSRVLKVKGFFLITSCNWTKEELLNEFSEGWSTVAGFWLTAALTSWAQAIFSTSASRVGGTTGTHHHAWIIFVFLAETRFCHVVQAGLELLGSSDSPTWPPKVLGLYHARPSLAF

No constants are given. Whether binding was seen depends on the method and setting. In cells and extracts the contact can be indirect. Some results given as binding are weak or reduced against the parent protein; the word gives no strength. For part of these data: Tags and fused reporters may be left off the sequences shown.

Test [1] deals with METTL10, endogenous (human (endogenous in MKN45 and AGS)) (UniProt Q5JPI9). Nature of the test: co-IP; endogenous proteins in MKN45 and AGS lysates; antibody on Dynabeads Protein G, 4 °C overnight; lysis buffer 20 mM Tris-HCl pH 7.5, 150 mM NaCl, 1% Triton X-100.
Test [2] concerns the target Flag-METTL10 (methyltransferase-like 10) (UniProt Q5JPI9). Nature of the test: co-IP; HEK293T transfected with HA-PIAS3 and Flag-METTL10; immunoprecipitation and immunoblotting. For orientation: Immunoblotting shows a protein as a band on a membrane.
In test [3] the target is Flag-tagged METTL10 N-terminal fragment (ΔC: aa 1-197) (UniProt Q5JPI9). Nature of the test: co-IP; domain mapping with Flag-tagged METTL10 fragments and PIAS3 domain constructs (Figure S3b,c); cells and antibodies not shown.

B1: PIAS3, endogenous (enzyme, UniProt Q9Y6X2 1-628)
chain: MAELGELKHMVMSFRVSELQVLLGFAGRNKSGRKHELLAKALHLLKSSCAPSVQMKIKELYRRRFPRKTLGPSDLSLLSLPPGTSPVGSPGPLAPIPPTLLAPGTLLGPKREVDMHPPLPQPVHPDVTMKPLPFYEVYGELIRPTTLASTSSQRFEEAHFTFALTPQQVQQILTSREVLPGAKCDYTIQVQLRFCLCETSCPQEDYFPPNLFVKVNGKLCPLPGYLPPTKNGAEPKRPSRPINITPLARLSATVPNTIVVNWSSEFGRNYSLSVYLVRQLTAGTLLQKLRAKGIRNPDHSRALIKEKLTADPDSEVATTSLRVSLMCPLGKMRLTVPCRALTCAHLQSFDAALYLQMNEKKPTWTCPVCDKKAPYESLIIDGLFMEILSSCSDCDEIQFMEDGSWCPMKPKKEASEVCPPPGYGLDGLQYSPVQGGDPSENKKKVEVIDLTIESSSDEEDLPPTKKHCSVTSAAIPALPGSKGVLTSGHQPSSVLRSPAMGTLGGDFLSSLPLHEYPPAFPLGADIQGLDLFSFLQTESQHYGPSVITSLDEQDALGHFFQYRGTPSHFLGPLAPTLGSSHCSATPAPPPGRVSSIVAPGGALREGHGGPLPSGPSLTGCRSDIISLD
In the case of B1, the binding result in test [1] is listed as “binds”.

B2: HA-PIAS3 (protein inhibitor of activated STAT3) (enzyme, UniProt Q9Y6X2 1-628)
chain: MAELGELKHMVMSFRVSELQVLLGFAGRNKSGRKHELLAKALHLLKSSCAPSVQMKIKELYRRRFPRKTLGPSDLSLLSLPPGTSPVGSPGPLAPIPPTLLAPGTLLGPKREVDMHPPLPQPVHPDVTMKPLPFYEVYGELIRPTTLASTSSQRFEEAHFTFALTPQQVQQILTSREVLPGAKCDYTIQVQLRFCLCETSCPQEDYFPPNLFVKVNGKLCPLPGYLPPTKNGAEPKRPSRPINITPLARLSATVPNTIVVNWSSEFGRNYSLSVYLVRQLTAGTLLQKLRAKGIRNPDHSRALIKEKLTADPDSEVATTSLRVSLMCPLGKMRLTVPCRALTCAHLQSFDAALYLQMNEKKPTWTCPVCDKKAPYESLIIDGLFMEILSSCSDCDEIQFMEDGSWCPMKPKKEASEVCPPPGYGLDGLQYSPVQGGDPSENKKKVEVIDLTIESSSDEEDLPPTKKHCSVTSAAIPALPGSKGVLTSGHQPSSVLRSPAMGTLGGDFLSSLPLHEYPPAFPLGADIQGLDLFSFLQTESQHYGPSVITSLDEQDALGHFFQYRGTPSHFLGPLAPTLGSSHCSATPAPPPGRVSSIVAPGGALREGHGGPLPSGPSLTGCRSDIISLD
In the case of B2, the binding entry in test [2] and in test [3] was “binds” each time.
